# According to PubChem BioAssay AID504834 (National Center for Advancing Translational Sciences (NCATS), 2011):
# Out of some 320,000 compounds screened, about 22,000 (6.9%) were called active. This list was built around the results that the source calls inconclusive (neither active nor inactive); the mix of calls is not that of the screen. Calls come from the whole dose curve; as a rule, active = well fitted inhibition curve with a large enough effect; inconclusive = small, poorly fitted or top-dose-only effect, or another doubt; inactive = no such curve, though single readings can be large or run the other way. Potencies beside an inconclusive call are fits to weak or partial responses and may not hold up.
# Assay: Primary qHTS for delayed death inhibitors of the malarial parasite plastid, 96 hour incubation
# Conditions: P. falciparum luciferase reporter growth; series mostly up to 28.7 µM
# Summary of the method: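 P. falciparum expressing integrated firefly luciferase grown in erythrocytes (2% hematocrit, 0.05% parasitemia final) with compounds for 96 hours at 37 C, 5% CO2. Growth inhibition read as loss of luminescence after adding luciferase detection reagent.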
# Potency is the fitted concentration of half-maximal effect.
row,Structure (SMILES),Potency
1,CC(CSc1nnnn1-c1ccccc1)Cn1c(N2CCCC2)nc2c1c(=O)[nH]c(=O)n2C (centres undefined),"inconclusive: 7.38 µM [inhibitor, partial curve, poor fit]"
2,N#Cc1ccccc1OCC(=O)OCC(=O)NC1CCS(=O)(=O)C1 (centres undefined),inactive
3,O=c1cc(-c2ccccc2)[nH]c2nc3ccccc3n12,"inconclusive: 18.5 µM [inhibitor, single point]"
4,Cn1nc(C(=O)Nc2ccc3c(c2)OCO3)c2ccccc2c1=O,"inconclusive: 18.5 µM [inhibitor, partial curve, poor fit]"
5,COc1ccc(C(=O)NC(=S)NNC(=O)c2c(-c3ccccc3)noc2C)cc1,"inconclusive: 13.1 µM [inhibitor, single point]"
6,Cc1onc(-c2ccccc2Cl)c1C(=O)NCCn1c(C)cc2ccccc21,active: 10.4 µM
7,COc1cc(C(=O)OC(C)C(=O)N2CCCC2)cc2c1OCCO2 (centres undefined),"inconclusive: 14.7 µM [inhibitor, partial curve, poor fit]"
8,CCOc1ccc(C(=O)Nc2ccccc2NC(C)=O)cc1OCC,inactive
9,COc1cc(CNC2CCCCCCC2)cc(Cl)c1OC,"inconclusive: 10.4 µM [inhibitor, single point]"
10,CC(=O)N/C(=N\c1nc(C)cc(C)n1)Nc1ccc(Cl)cc1Cl,"inconclusive: 9.28 µM [inhibitor, partial curve, poor fit]"
11,O=C(COc1ccccc1Cl)N1CCCC(N2CCN(c3ccc(F)cc3)CC2)C1 (centres undefined),active: 8.28 µM
12,CC(C)CC(NC(=O)C1CCC(C)CC1)C(=O)Nc1ccccn1 (centres undefined),"inconclusive: 0.0033 µM [inhibitor, full curve, poor fit]"
13,Nc1cccc(Nc2ccccc2)c1,"inconclusive: 10.4 µM [inhibitor, single point]"
14,O=C(c1ccco1)N1CCN(c2ncnc3c2[nH]c2ccccc23)CC1,inactive
15,CN(CCO)c1ccc(-c2nn(C)c(=O)c3ccccc23)cc1[N+](=O)[O-],inactive
16,Cn1c(=O)c2sccc2n2c(CCCC(=O)N3CCCCC3)nnc12,"inconclusive: 10.4 µM [inhibitor, partial curve]"
17,COc1cccc(-c2c(C(=O)N/N=C(\C)c3ccc(Cl)s3)nnn2-c2nonc2N)c1,"inconclusive: 9.28 µM [inhibitor, partial curve]"
18,Cc1ccc(NC(=O)CNCc2ccccc2)c(Br)c1,"inconclusive: 1.85 µM [inhibitor, full curve, poor fit]"
19,CCOC(=O)C1CCCN(C(=O)c2cc(CN3C(=O)c4ccccc4C3=O)ccc2OC)C1 (centres undefined),inactive
20,COc1ccc(N2C(=O)CCC(C(=O)N3CCC(C(N)=O)CC3)C2c2ccc(F)cc2)cc1 (centres undefined),"inconclusive: 14.7 µM [inhibitor, partial curve, poor fit]"
21,CCN(CC)C(=O)C(=O)Nc1ccc(OCc2ccccc2)cc1,"inconclusive: 10.4 µM [inhibitor, partial curve]"
22,O=c1c(-c2nc3ccccc3s2)cccn1Cc1ccc(Cl)c(Cl)c1,"inconclusive: 2.62 µM [inhibitor, full curve]"
23,O=C(CSc1ncccn1)Nc1cccc2ccccc12,inactive

row,Structure (SMILES),Potency
1,CC(C)CCn1c(SCC(N)=O)nc2c1c(=O)n(C)c(=O)n2C,"inconclusive: 13.1 µM [inhibitor, single point]"
2,O=C(CN1CCCC1)Nc1ccc(Cl)cc1C(=O)c1ccccc1,inactive
3,COc1ccccc1C(OC(=O)c1cccs1)C(=O)NCc1ccco1 (centres undefined),inactive
4,COc1cc(C(=O)OCC(=O)NC(=O)NC2CCCCC2)cc(Cl)c1OC,inactive
5,CCOc1ccc(-c2cccc(NC(=O)COc3ccc(Cl)cc3)c2)nn1,"inconclusive: 7.38 µM [inhibitor, partial curve]"
6,Cc1c(C)[n+](=O)c(-c2ccc(Br)cc2)c(C)n1[O-],inactive
7,COc1ccc(-c2noc(CCCC(=O)NCC3CCCO3)n2)cc1 (centres undefined),"inconclusive: 13.1 µM [inhibitor, single point]"
8,Cc1noc(C)c1CSCC(=O)Nc1cc(S(=O)(=O)N2CCOCC2)ccc1OC(C)C,"inconclusive: 11.7 µM [inhibitor, partial curve]"
9,O=C(NCC(=O)N1CCCCCCC1)c1ccc(Br)o1,inactive
10,O=C(Cn1cnc2ccccc21)Nc1ccc(SC(F)F)cc1,inactive
11,COc1ccccc1Nc1c2c(nc3ccccc13)CCC2,"inconclusive: 18.5 µM [inhibitor, single point]"
12,CC1=NN(c2nc3ccccc3[nH]2)C(=O)C1Cc1ccccc1 (centres undefined),active: 4.15 µM
13,COc1ccc(C)cc1NC(=O)c1nn(-c2ccccc2)cc1OC,active: 2.94 µM
14,COC(=O)c1cc(C(=O)NCc2ccccc2)c(=O)[nH]c1C,"inconclusive: 18.5 µM [inhibitor, single point]"
15,Cc1nc2sc(C(=O)Nc3ccccc3)c(N)c2c(C)c1[N+](=O)[O-],"inconclusive: 18.5 µM [inhibitor, single point]"
16,CN(C(=O)/C=C/c1ccccc1)C1CCS(=O)(=O)C1 (centres undefined),"inconclusive: 18.5 µM [inhibitor, single point]"
17,CCOc1ccccc1CNC(c1ccccc1)c1ccccc1,"inconclusive: 8.28 µM [inhibitor, partial curve]"
18,COc1ccc(NS(=O)(=O)c2cc(NC(=O)CNC(=O)c3ccc(C)s3)ccc2Cl)cc1,"inconclusive: 1.47 µM [inhibitor, partial curve, poor fit]"
19,COc1cccc(CNC(=O)Cn2c(=O)oc3cc(S(=O)(=O)N4CCCCC4)ccc32)c1,inactive
20,COc1ccccc1C(=O)N/C(=C\c1cn(S(=O)(=O)N(C)C)c2ccccc12)C(=O)N1CCCCC1,inactive
21,COc1ccccc1Nc1nc(N)nc(CSC(=S)N2CCN(c3ccccc3)CC2)n1,"inconclusive: 14.7 µM [inhibitor, single point]"
22,N#Cc1nc(Cc2cccc3ccccc23)oc1NCc1ccco1,"inconclusive: 2.08 µM [inhibitor, partial curve, poor fit]"
23,O=C(NCC(c1ccccc1)N1CCCC1)C1CCN(C(=O)Nc2ccccc2)CC1 (centres undefined),"inconclusive: 18.5 µM [inhibitor, single point]"

row,Structure (SMILES),Potency
1,CCN(CC)C(=O)C(=O)N/N=C/c1ccc(C(=O)OC)cc1,"inconclusive: 1.65 µM [inhibitor, full curve, poor fit]"
2,CC(C)(C)SCCNS(=O)(=O)c1ccc(C#N)cc1,inactive
3,O=C(CSc1n[nH]c(-c2ccccn2)n1)Nc1cccc(Cl)c1,"inconclusive: 20.8 µM [inhibitor, partial curve, poor fit]"
4,CC1=NN=C(c2ccccc2)C(c2c[nH]c3ccccc23)N1O (centres undefined),"inconclusive: 10.4 µM [inhibitor, single point]"
5,Cc1ccsc1/C=N/NC(=O)c1nnn(-c2nonc2N)c1CSc1ccccc1,inactive
6,COc1cc(C(=O)NNC(=O)c2ccoc2C)cc(OC)c1OC,inactive
7,O=C(Nc1cc2c3c(c1)CC(=O)N3CCC2)c1c(F)cccc1F,inactive
8,NC(=O)c1nnn(-c2ccc([N+](=O)[O-])cc2)c1-c1ccccc1,"inconclusive: 5.86 µM [inhibitor, partial curve, poor fit]"
9,CC(Oc1ccc(Cl)cc1)c1ccnn1S(=O)(=O)c1ccccc1 (centres undefined),"inconclusive: 7.38 µM [inhibitor, partial curve, poor fit]"
10,COc1ccccc1CN1CCNC(=O)C1CC(=O)NCc1csc(C)n1 (centres undefined),"inconclusive: 18.5 µM [inhibitor, single point]"
11,CCN(CC(=O)Nc1cc(Cl)ccc1C)C(=O)C1CC1,inactive
12,CC(=O)Nc1ccc(NC(=O)C2CCCN(S(=O)(=O)c3ccc(-n4cnnn4)cc3)C2)cc1 (centres undefined),"inconclusive: 0.465 µM [inhibitor, partial curve, poor fit]"
13,S=c1[nH]nc(-c2cc(-c3ccsc3)n[nH]2)n1-c1ccccc1,"inconclusive: 13.1 µM [inhibitor, single point]"
14,O=C(O)c1ccc(NC(=O)c2ccccc2NC(=O)c2cccc(Br)c2)cc1,inactive
15,COc1cc(OC)cc(C(=O)N/N=C\c2ccoc2)c1,inactive
16,CCCN(CC(=O)Nc1ccccc1C)C(=O)Cc1cccs1,"inconclusive: 5.22 µM [inhibitor, partial curve, poor fit]"
17,CCCc1cc(=O)[nH]c2nnc(SCC(=O)Nc3nnc(CC)s3)n12,"inconclusive: 13.1 µM [inhibitor, partial curve]"
18,CCC(=O)n1nc(-c2ccccc2)nc1SCC(=O)Nc1ccc(C)cc1,"inconclusive: 0.0029 µM [inhibitor, full curve, poor fit]"
19,Cc1ccc(N(C(=O)Cn2nnc3ccccc32)C(C(=O)NCc2ccco2)c2ccc(C)o2)cc1 (centres undefined),"inconclusive: 1.17 µM [inhibitor, partial curve, poor fit]"
20,CC(=O)Nc1nonc1-c1nc2ccccc2n1CCC(C)C,"inconclusive: 0.294 µM [inhibitor, full curve, poor fit]"
21,Cc1nc2ccc(S(=O)(=O)NCC(=O)N3CCCC(C)C3)cc2s1 (centres undefined),"inconclusive: 0.0828 µM [inhibitor, full curve, poor fit]"
22,O=C(OCC(=O)N1CCN(C(=O)c2ccco2)CC1)c1cc(-c2ccco2)nc2ccccc12,"inconclusive: 0.131 µM [inhibitor, full curve, poor fit]"
23,CCCC12CN3CCN(CC(C3)/C1=N\NC(=O)c1ccncc1)C2,"inconclusive: 10.4 µM [inhibitor, partial curve, poor fit]"

# By substructure, those above containing two or more sulfur atoms
row,Structure (SMILES),Potency
8,Cc1noc(C)c1CSCC(=O)Nc1cc(S(=O)(=O)N2CCOCC2)ccc1OC(C)C,"inconclusive: 11.7 µM [inhibitor, partial curve]"
18,COc1ccc(NS(=O)(=O)c2cc(NC(=O)CNC(=O)c3ccc(C)s3)ccc2Cl)cc1,"inconclusive: 1.47 µM [inhibitor, partial curve, poor fit]"
21,COc1ccccc1Nc1nc(N)nc(CSC(=S)N2CCN(c3ccccc3)CC2)n1,"inconclusive: 14.7 µM [inhibitor, single point]"
2,CC(C)(C)SCCNS(=O)(=O)c1ccc(C#N)cc1,inactive
5,Cc1ccsc1/C=N/NC(=O)c1nnn(-c2nonc2N)c1CSc1ccccc1,inactive
13,S=c1[nH]nc(-c2cc(-c3ccsc3)n[nH]2)n1-c1ccccc1,"inconclusive: 13.1 µM [inhibitor, single point]"
17,CCCc1cc(=O)[nH]c2nnc(SCC(=O)Nc3nnc(CC)s3)n12,"inconclusive: 13.1 µM [inhibitor, partial curve]"
21,Cc1nc2ccc(S(=O)(=O)NCC(=O)N3CCCC(C)C3)cc2s1 (centres undefined),"inconclusive: 0.0828 µM [inhibitor, full curve, poor fit]"

# Two entries drawn at random from the list so far:
row,Structure (SMILES),Potency
7,O=C(Nc1cc2c3c(c1)CC(=O)N3CCC2)c1c(F)cccc1F,inactive
3,COc1ccccc1C(OC(=O)c1cccs1)C(=O)NCc1ccco1 (centres undefined),inactive
